{"source": "the supplement of paper PMC12595434", "about": "“Development of retinoid nuclear receptor pathway antagonists through targeting aldehyde dehydrogenase 1A3” (iScience, 2025)", "biological_target": "UniProt Q15413", "experiment": "melting temperature shift (DMSO Tm minus MBE1-treated Tm) in cellular thermal proteome profiling; higher = less thermal stabilization by MBE1 (negative = stabilized by MBE1)", "conditions": "A375", "note": "The list shows a part of the results. The data scatter; read single values as rough.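 Tm was set to 64 °C where no melting was found, and many curves are irregular.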", "data": [{"smiles": "CCc1cnccc1C(=O)Nc1cc2c(cc1F)NC(=O)CC2", "values": [{"measurement": "melting temperature shift", "setting": "MBE1 concentration: 100 nM", "result": -2.19, "unit": "°C"}, {"measurement": "melting temperature shift", "setting": "MBE1 concentration: 1 uM", "result": 1.06, "unit": "°C"}]}]}
